Results reported in patent US11065203B2, “Liposomal compositions and uses of same” (Technion Research & Development Foundation Limited, priority 2009, dated 2021).

B1: Q12797 (protein, UniProt Q12797 1-758, looked up)
chain: MAQRKNAKSSGNSSSSGSGSGSTSAGSSSPGARRETKHGGHKNGRKGGLSGTSFFTWFMVIALLGVWTSVAVVWFDLVDYEEVLGKLGIYDADGDGDFDVDDAKVLLGLKERSTSEPAVPPEEAEPHTEPEEQVPVEAEPQNIEDEAKEQIQSLLHEMVHAEHVEGEDLQQEDGPTGEPQQEDDEFLMATDVDDRFETLEPEVSHEETEHSYHVEETVSQDCNQDMEEMMSEQENPDSSEPVVEDERLHHDTDDVTYQVYEEQAVYEPLENEGIEITEVTAPPEDNPVEDSQVIVEEVSIFPVEEQQEVPPETNRKTDDPEQKAKVKKKKPKLLNKFDKTIKAELDAAEKLRKRGKIEEAVNAFKELVRKYPQSPRARYGKAQCEDDLAEKRRSNEVLRGAIETYQEVASLPDVPADLLKLSLKRRSDRQQFLGHMRGSLLTLQRLVQLFPNDTSLKNDLGVGYLLIGDNDNAKKVYEEVLSVTPNDGFAKVHYGFILKAQNKIAESIPYLKEGIESGDPGTDDGRFYFHLGDAMQRVGNKEAYKWYELGHKRGHFASVWQRSLYNVNGLKAQPWWTPKETGYTELVKSLERNWKLIRDEGLAVMDKAKGLFLPEDENLREKGDWSQFTLWQQGRRNENACKGAPKTCTLLEKFPETTGCRRGQIKYSIMHPGTHVWPHTGPTNCRLRMHLGLVIPKEGCKIRCANETKTWEEGKVLIFDDSFEHEVWQDASSFRLIFIVDVWHPELTPQQRRSLPAI
modifications: full-length
B2: O00159 (protein, UniProt O00159 1-1063, looked up)
chain: MALQVELVPTGEIIRVVHPHRPCKLALGSDGVRVTMESALTARDRVGVQDFVLLENFTSEAAFIENLRRRFRENLIYTYIGPVLVSVNPYRDLQIYSRQHMERYRGVSFYEVPPHLFAVADTVYRALRTERRDQAVMISGESGAGKTEATKRLLQFYAETCPAPERGGAVRDRLLQSNPVLEAFGNAKTLRNDNSSRFGKYMDVQFDFKGAPVGGHILSYLLEKSRVVHQNHGERNFHIFYQLLEGGEEETLRRLGLERNPQSYLYLVKGQCAKVSSINDKSDWKVVRKALTVIDFTEDEVEDLLSIVASVLHLGNIHFAANEESNAQVTTENQLKYLTRLLSVEGSTLREALTHRKIIAKGEELLSPLNLEQAAYARDALAKAVYSRTFTWLVGKINRSLASKDVESPSWRSTTVLGLLDIYGFEVFQHNSFEQFCINYCNEKLQQLFIELTLKSEQEEYEAEGIAWEPVQYFNNKIICDLVEEKFKGIISILDEECLRPGEATDLTFLEKLEDTVKHHPHFLTHKLADQRTRKSLGRGEFRLLHYAGEVTYSVTGFLDKNNDLLFRNLKETMCSSKNPIMSQCFDRSELSDKKRPETVATQFKMSLLQLVEILQSKEPAYVRCIKPNDAKQPGRFDEVLIRHQVKYLGLLENLRVRRAGFAYRRKYEAFLQRYKSLCPETWPTWAGRPQDGVAVLVRHLGYKPEEYKMGRTKIFIRFPKTLFATEDALEVRRQSLATKIQAAWRGFHWRQKFLRVKRSAICIQSWWRGTLGRRKAAKRKWAAQTIRRLIRGFVLRHAPRCPENAFFLDHVRTSFLLNLRRQLPQNVLDTSWPTPPPALREASELLRELCIKNMVWKYCRSISPEWKQQLQQKAVASEIFKGKKDNYPQSVPRLFISTRLGTDEISPRVLQALGSEPIQYAVPVVKYDRKGYKPRSRQLLLTPNAVVIVEDAKVKQRIDYANLTGISVSSLSDSLFVLHVQRADNKQKGDVVLQSDHVIETLTKTALSANRVNSININQGSITFAGGPGRDGTIDFTPGSELLITKAKNGHLAVVAPRLNSR
modifications: full-length
B3: O14773 (protein, UniProt O14773 1-563, looked up)
chain: MGLQACLLGLFALILSGKCSYSPEPDQRRTLPPGWVSLGRADPEEELSLTFALRQQNVERLSELVQAVSDPSSPQYGKYLTLENVADLVRPSPLTLHTVQKWLLAAGAQKCHSVITQDFLTCWLSIRQAELLLPGAEFHHYVGGPTETHVVRSPHPYQLPQALAPHVDFVGGLHRFPPTSSLRQRPEPQVTGTVGLHLGVTPSVIRKRYNLTSQDVGSGTSNNSQACAQFLEQYFHDSDLAQFMRLFGGNFAHQASVARVVGQQGRGRAGIEASLDVQYLMSAGANISTWVYSSPGRHEGQEPFLQWLMLLSNESALPHVHTVSYGDDEDSLSSAYIQRVNTELMKAAARGLTLLFASGDSGAGCWSVSGRHQFRPTFPASSPYVTTVGGTSFQEPFLITNEIVDYISGGGFSNVFPRPSYQEEAVTKFLSSSPHLPPSSYFNASGRAYPDVAALSDGYWVVSNRVPIPWVSGTSASTPVFGGILSLINEHRILSGRPPLGFLNPRLYQQHGAGLFDVTRGCHESCLDEEVEGQGFCSGPGWDPVTGWGTPNFPALLKTLLNP
modifications: full-length
B4: P10620 (protein, UniProt P10620 1-155, looked up)
chain: MVDLTQVMDDEVFMAFASYATIILSKMMLMSTATAFYRLTRKVFANPEDCVAFGKGENAKKYLRTDDRVERVRRAHLNDLENIIPFLGIGLLYSLSGPDPSTAILHFRLFVGARIYHTIAYLTPLPQPNRALSFFVGYGVTLSMAYRLLKSKLYL
modifications: full-length
B5: Q9NSE4 (protein, UniProt Q9NSE4 1-1012, looked up)
chain: MRWGLRPRGPGAAALATARSLWGTPRLPCSPGWQGATKRLLVRSVSGASNHQPNSNSGRYRDTVLLPQTSFPMKLLGRQQPDTELEIQQKCGFSELYSWQRERKVKTEFCLHDGPPYANGDPHVGHALNKILKDIANRFHMMNGSKIHFVPGWDCHGLPIEIKVLSELGREAQNLSAMEIRKKARSFAKAAIEKQKSAFIRWGIMADWNNCYYTFDGKYEAKQLRTFYQMYDKGLVYRSYKPVFWSPSSRTALAEAELEYNPEHVSRSIYVKFPLLKPSPKLASLIDGSSPVSILVWTTQPWTIPANEAVCYMPESKYAVVKCSKSGDLYVLAADKVASVASTLETTFETISTLSGVDLENGTCSHPLIPDKASPLLPANHVTMAKGTGLVHTAPAHGMEDYGVASQHNLPMDCLVDEDGVFTDVAGPELQNKAVLEEGTDVVIKMLQTAKNLLKEEKLVHSYPYDWRTKKPVVIRASKQWFINITDIKTAAKELLKKVKFIPGSALNGMVEMMDRRPYWCISRQRVWGVPIPVFHHKTKDEYLINSQTTEHIVKLVEQHGSDIWWTLPPEQLLPKEVLSEVGGPDALEYVPGQDILDIWFDSGTSWSYVLPGPDQRADLYLEGKDQLGGWFQSSLLTSVAARKRAPYKTVIVHGFTLGEKGEKMSKSLGNVIHPDVVVNGGQDQSKEPPYGADVLRWWVADSNVFTEVAIGPSVLNAARDDISKLRNTLRFLLGNVADFNPETDSIPVNDMYVIDQYMLHLLQDLANKITELYKQYDFGKVVRLLRTFYTRELSNFYFSIIKDRLYCEKENDPKRRSCQTALVEILDVIVRSFAPILPHLAEEVFQHIPYIKEPKSVFRTGWISTSSIWKKPGLEEAVESACAMRDSFLGSIPGKNAAEYKVITVIEPGLLFEIIEMLQSEETSSTSQLNELMMASESTLLAQEPREMTADVIELKGKFLINLEGGDIREESSYKVIVMPTTKEKCPRCWKYTAESSDTLCPRCAEVVSGK
modifications: full-length
B6: O00469 (protein, UniProt O00469 1-737, looked up)
chain: MGGCTVKPQLLLLALVLHPWNPCLGADSEKPSSIPTDKLLVITVATKESDGFHRFMQSAKYFNYTVKVLGQGEEWRGGDGINSIGGGQKVRLMKEVMEHYADQDDLVVMFTECFDVIFAGGPEEVLKKFQKANHKVVFAADGILWPDKRLADKYPVVHIGKRYLNSGGFIGYAPYVNRIVQQWNLQDNDDDQLFYTKVYIDPLKREAINITLDHKCKIFQTLNGAVDEVVLKFENGKARAKNTFYETLPVAINGNGPTKILLNYFGNYVPNSWTQDNGCTLCEFDTVDLSAVDVHPNVSIGVFIEQPTPFLPRFLDILLTLDYPKEALKLFIHNKEVYHEKDIKVFFDKAKHEIKTIKIVGPEENLSQAEARNMGMDFCRQDEKCDYYFSVDADVVLTNPRTLKILIEQNRKIIAPLVTRHGKLWSNFWGALSPDGYYARSEDYVDIVQGNRVGVWNVPYMANVYLIKGKTLRSEMNERNYFVRDKLDPDMALCRNAREMGVFMYISNRHEFGRLLSTANYNTSHYNNDLWQIFENPVDWKEKYINRDYSKIFTENIVEQPCPDVFWFPIFSEKACDELVEEMEHYGKWSGGKHHDSRISGGYENVPTDDIHMKQVDLENVWLHFIREFIAPVTLKVFAGYYTKGFALLNFVVKYSPERQRSLRPHHDASTFTINIALNNVGEDFQGGGCKFLRYNCSIESPRKGWSFMHPGRLTHLHEGLPVKNGTRYIAVSFIDP
modifications: full-length
B7: P20340 (protein, UniProt P20340 1-208, looked up)
chain: MSTGGDFGNPLRKFKLVFLGEQSVGKTSLITRFMYDSFDNTYQATIGIDFLSKTMYLEDRTVRLQLWDTAGQERFRSLIPSYIRDSTVAVVVYDITNVNSFQQTTKWIDDVRTERGSDVIIMLVGNKTDLADKRQVSIEEGERKAKELNVMFIETSAKAGYNVKQLFRRVAAALPGMESTQDRSREDMIDIKLEKPQEQPVSEGGCSC
modifications: full-length
B8: P80723 (protein, UniProt P80723 1-227, looked up)
chain: MGGKLSKKKKGYNVNDEKAKEKDKKAEGAATEEEGTPKESEPQAAAEPAEAKEGKEKPDQDAEGKAEEKEGEKDAAAAKEEAPKAEPEKTEGAAEAKAEPPKAPEQEQAAPGPAAGGEAPKAAEAAAAPAESAAPAAGEEPSKEEGEPKKTEAPAAPAAQETKSDGAPASDSKPGSSEAAPSSKETPAATEAPSSTPKAQGPAASAEEPKPVEAPAANSDQTVTVKE
modifications: full-length
B9: Q96AQ6 (protein, UniProt Q96AQ6 1-731, looked up)
chain: MASCPDSDNSWVLAGSESLPVETLGPASRMDPESERALQAPHSPSKTDGKELAGTMDGEGTLFQTESPQSGSILTEETEVKGTLEGDVCGVEPPGPGDTVVQGDLQETTVVTGLGPDTQDLEGQSPPQSLPSTPKAAWIREEGRCSSSDDDTDVDMEGLRRRRGREAGPPQPMVPLAVENQAGGEGAGGELGISLNMCLLGALVLLGLGVLLFSGGLSESETGPMEEVERQVLPDPEVLEAVGDRQDGLREQLQAPVPPDSVPSLQNMGLLLDKLAKENQDIRLLQAQLQAQKEELQSLMHQPKGLEEENAQLRGALQQGEAFQRALESELQQLRARLQGLEADCVRGPDGVCLSGGRGPQGDKAIREQGPREQEPELSFLKQKEQLEAEAQALRQELERQRRLLGSVQQDLERSLQDASRGDPAHAGLAELGHRLAQKLQGLENWGQDPGVSANASKAWHQKSHFQNSREWSGKEKWWDGQRDRKAEHWKHKKEESGRERKKNWGGQEDREPAGRWKEGRPRVEESGSKKEGKRQGPKEPPRKSGSFHSSGEKQKQPRWREGTKDSHDPLPSWAELLRPKYRAPQGCSGVDECARQEGLTFFGTELAPVRQQELASLLRTYLARLPWAGQLTKELPLSPAFFGEDGIFRHDRLRFRDFVDALEDSLEEVAVQQTGDDDEVDDFEDFIFSHFFGDKALKKRSGKKDKHSQSPRAAGPREGHSHSHHHHHRG
modifications: full-length

Test: Proteomics analysis (trypsin digest, LC-MS/MS) of hMSC ghosts and derived CDLs, conditioned or unconditioned by PC3 medium
Design: species or system human
Settings: LC-MS/MS peak area per protein; for Ratio of expression Cond. CDLs/Cond. Ghosts: CDLs derived from conditioned hMSCs versus conditioned ghosts; for Ratio of expression Cond Ghosts/Ghosts: hMSC ghosts conditioned by PC3 medium versus unconditioned ghosts

Molecule | Ratio of expression Cond. CDLs/Cond. Ghosts [%] | Ratio of expression Cond Ghosts/Ghosts [%]
B1 | 5 | 135
B2 | 4 | 129
B3 | 6 | 129
B4 | 3 | 128
B5 | 4 | 121
B6 | 2 | 120
B7 | 100 | 100
B8 | 33 | 100
B9 | 27 | 100
